Experimental data taken from the supplement of paper PMC10849652.
The list shows a part of the results.

The chains behind the UniProt entries cited, without tags or fusion partners. Where a name states a change or a piece, a line headed by the entry shows the natural chain unless it says otherwise.
UniProt Q15363: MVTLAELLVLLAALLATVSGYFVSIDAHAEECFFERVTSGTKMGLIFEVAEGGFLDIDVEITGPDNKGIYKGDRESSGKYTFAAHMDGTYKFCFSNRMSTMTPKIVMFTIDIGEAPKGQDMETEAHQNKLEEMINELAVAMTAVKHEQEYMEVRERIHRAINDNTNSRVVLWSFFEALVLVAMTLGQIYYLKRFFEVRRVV
UniProt Q5BJF2, whole entry, looked up: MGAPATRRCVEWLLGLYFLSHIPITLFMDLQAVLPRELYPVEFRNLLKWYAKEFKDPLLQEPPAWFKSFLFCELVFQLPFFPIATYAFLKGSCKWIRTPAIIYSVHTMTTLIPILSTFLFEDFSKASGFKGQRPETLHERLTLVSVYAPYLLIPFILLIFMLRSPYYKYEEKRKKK
UniProt Q9BUB7: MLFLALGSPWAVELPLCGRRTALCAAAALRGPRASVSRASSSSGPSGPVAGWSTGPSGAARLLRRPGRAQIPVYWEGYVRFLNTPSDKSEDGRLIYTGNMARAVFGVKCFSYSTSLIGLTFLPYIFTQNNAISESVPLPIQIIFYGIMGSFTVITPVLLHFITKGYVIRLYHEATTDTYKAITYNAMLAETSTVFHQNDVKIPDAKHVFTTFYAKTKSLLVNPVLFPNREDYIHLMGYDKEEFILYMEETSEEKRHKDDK
UniProt Q8IUX1: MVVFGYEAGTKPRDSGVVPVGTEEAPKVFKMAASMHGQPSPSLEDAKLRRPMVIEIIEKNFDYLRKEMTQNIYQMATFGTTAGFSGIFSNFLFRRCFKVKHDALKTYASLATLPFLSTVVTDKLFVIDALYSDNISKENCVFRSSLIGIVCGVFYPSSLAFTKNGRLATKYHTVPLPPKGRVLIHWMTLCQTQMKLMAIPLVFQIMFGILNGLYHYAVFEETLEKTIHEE
UniProt Q5BJH2: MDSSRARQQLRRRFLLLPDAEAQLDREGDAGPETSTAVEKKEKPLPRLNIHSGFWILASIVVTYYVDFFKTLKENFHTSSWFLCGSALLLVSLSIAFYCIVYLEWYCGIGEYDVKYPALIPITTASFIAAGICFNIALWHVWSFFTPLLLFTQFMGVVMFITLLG
UniProt Q5BJD5: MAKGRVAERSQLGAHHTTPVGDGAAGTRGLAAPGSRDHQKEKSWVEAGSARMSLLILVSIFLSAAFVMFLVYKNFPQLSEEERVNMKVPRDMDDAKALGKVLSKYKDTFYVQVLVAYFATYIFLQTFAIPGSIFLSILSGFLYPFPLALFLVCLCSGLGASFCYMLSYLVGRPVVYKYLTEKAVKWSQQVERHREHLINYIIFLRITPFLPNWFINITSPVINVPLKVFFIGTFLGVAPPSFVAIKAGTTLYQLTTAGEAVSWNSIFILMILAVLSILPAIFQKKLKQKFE
UniProt Q9BVK6: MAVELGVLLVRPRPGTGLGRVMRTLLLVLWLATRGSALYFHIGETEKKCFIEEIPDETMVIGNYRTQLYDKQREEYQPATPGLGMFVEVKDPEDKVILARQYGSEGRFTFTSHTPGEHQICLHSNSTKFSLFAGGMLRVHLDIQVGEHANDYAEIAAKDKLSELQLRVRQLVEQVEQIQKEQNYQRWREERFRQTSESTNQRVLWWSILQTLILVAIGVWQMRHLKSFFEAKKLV
UniProt Q04727: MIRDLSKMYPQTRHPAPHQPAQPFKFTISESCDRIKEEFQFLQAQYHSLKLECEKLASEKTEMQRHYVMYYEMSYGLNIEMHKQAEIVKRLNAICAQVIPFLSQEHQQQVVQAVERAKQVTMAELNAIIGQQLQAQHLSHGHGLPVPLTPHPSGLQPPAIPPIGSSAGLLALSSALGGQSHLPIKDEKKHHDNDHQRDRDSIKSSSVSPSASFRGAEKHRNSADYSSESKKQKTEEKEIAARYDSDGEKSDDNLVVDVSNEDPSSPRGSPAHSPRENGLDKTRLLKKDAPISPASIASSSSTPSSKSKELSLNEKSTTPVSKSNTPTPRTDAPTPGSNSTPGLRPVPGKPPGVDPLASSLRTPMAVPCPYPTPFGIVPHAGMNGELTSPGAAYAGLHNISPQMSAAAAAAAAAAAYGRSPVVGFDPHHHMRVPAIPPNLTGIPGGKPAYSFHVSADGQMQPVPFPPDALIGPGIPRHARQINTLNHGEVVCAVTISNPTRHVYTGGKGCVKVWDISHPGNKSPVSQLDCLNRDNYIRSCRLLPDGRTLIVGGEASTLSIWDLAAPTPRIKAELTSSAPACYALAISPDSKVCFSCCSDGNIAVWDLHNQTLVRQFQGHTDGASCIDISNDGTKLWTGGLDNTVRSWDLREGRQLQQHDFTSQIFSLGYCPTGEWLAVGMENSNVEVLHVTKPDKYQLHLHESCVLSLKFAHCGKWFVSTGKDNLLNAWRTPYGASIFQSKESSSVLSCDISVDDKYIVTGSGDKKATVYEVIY
UniProt Q9H061: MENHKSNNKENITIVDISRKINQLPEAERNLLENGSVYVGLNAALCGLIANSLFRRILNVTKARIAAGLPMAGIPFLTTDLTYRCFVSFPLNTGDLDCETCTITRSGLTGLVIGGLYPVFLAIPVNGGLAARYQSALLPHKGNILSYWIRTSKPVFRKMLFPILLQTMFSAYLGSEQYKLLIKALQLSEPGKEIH
UniProt Q9NVV0: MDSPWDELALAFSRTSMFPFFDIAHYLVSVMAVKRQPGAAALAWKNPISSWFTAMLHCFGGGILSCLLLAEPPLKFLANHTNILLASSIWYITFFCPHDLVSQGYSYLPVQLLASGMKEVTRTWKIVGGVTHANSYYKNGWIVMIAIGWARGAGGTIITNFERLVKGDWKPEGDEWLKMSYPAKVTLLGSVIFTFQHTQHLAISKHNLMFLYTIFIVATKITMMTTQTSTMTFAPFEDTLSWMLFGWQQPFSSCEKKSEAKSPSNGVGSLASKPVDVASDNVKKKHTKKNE
UniProt Q96B77: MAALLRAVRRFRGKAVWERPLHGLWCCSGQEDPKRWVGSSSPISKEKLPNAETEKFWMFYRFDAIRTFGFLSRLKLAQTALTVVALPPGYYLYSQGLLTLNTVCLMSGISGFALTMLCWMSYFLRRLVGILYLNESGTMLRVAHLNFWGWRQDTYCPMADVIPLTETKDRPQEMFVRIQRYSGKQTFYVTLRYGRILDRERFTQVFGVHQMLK
UniProt Q96JJ7: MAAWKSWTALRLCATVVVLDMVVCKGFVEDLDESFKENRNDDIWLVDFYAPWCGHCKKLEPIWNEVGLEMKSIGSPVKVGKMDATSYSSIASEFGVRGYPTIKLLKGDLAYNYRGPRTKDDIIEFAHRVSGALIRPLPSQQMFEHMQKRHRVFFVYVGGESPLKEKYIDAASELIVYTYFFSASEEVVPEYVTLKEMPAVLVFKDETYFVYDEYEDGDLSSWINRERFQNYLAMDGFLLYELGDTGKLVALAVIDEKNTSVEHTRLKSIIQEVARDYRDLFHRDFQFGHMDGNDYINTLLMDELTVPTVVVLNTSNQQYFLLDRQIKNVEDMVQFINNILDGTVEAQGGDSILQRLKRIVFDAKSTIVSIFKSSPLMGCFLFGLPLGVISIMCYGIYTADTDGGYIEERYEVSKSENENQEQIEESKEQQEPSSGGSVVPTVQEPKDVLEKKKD
UniProt Q99805: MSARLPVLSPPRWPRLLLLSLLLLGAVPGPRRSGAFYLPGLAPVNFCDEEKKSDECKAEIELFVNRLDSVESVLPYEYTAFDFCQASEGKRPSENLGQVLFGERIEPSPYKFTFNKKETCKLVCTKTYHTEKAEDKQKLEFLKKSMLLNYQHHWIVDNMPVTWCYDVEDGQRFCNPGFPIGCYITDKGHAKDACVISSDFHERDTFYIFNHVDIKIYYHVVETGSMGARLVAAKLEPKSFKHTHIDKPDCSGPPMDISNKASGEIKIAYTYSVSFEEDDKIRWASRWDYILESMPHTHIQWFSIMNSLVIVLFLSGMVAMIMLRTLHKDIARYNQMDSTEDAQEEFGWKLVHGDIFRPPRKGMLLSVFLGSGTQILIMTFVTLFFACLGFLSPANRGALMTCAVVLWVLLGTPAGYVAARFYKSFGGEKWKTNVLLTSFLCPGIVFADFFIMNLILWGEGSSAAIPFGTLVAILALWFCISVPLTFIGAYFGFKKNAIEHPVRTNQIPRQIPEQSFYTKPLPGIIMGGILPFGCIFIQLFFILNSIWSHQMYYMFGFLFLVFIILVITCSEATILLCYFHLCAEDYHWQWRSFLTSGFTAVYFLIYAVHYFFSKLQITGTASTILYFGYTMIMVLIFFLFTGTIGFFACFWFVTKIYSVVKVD
UniProt Q9NX00: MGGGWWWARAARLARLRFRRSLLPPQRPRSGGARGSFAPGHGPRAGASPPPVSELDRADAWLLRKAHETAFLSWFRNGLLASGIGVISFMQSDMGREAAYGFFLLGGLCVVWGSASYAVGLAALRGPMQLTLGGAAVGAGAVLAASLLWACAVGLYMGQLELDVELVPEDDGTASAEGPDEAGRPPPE
UniProt Q9HC07: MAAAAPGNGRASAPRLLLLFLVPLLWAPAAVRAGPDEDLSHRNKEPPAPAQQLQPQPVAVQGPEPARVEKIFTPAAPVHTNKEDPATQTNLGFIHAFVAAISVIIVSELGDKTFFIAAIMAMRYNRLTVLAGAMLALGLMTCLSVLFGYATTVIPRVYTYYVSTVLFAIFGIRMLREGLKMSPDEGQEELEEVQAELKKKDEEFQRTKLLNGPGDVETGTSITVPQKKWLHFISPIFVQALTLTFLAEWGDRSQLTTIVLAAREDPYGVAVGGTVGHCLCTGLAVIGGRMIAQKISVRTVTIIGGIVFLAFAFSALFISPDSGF
UniProt Q13829: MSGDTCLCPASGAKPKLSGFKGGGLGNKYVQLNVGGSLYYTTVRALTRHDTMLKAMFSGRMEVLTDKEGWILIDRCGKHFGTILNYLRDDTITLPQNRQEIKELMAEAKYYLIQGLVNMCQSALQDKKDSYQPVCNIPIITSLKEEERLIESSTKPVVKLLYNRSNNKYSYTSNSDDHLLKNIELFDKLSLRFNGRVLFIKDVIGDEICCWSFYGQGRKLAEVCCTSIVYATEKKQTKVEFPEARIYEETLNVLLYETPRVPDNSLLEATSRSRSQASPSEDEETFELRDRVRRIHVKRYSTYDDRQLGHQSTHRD
UniProt Q9NZR1: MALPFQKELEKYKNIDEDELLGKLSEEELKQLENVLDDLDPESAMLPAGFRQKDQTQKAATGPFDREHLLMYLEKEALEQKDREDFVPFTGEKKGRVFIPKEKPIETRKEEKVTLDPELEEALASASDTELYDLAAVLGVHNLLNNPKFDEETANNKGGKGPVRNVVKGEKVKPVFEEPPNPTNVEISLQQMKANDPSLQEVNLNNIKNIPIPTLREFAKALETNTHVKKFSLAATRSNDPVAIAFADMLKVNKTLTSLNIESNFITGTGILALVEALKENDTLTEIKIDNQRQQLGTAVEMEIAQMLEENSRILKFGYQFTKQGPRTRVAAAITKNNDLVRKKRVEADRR
UniProt Q9BXJ8: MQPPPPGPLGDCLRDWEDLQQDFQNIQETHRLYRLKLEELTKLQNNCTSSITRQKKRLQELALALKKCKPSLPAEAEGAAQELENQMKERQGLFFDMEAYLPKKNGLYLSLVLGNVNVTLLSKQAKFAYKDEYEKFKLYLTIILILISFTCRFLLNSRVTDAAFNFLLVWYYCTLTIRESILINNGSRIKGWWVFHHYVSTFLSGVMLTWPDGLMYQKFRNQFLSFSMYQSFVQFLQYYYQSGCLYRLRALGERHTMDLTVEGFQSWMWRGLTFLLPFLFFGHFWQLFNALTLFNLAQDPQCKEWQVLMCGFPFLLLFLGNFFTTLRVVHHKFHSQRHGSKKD
UniProt Q9P0T7: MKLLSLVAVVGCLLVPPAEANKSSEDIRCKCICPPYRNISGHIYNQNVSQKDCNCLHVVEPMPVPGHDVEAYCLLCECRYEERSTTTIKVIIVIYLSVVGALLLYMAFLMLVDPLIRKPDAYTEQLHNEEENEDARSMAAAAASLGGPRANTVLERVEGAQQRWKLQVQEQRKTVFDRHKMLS
UniProt Q9NX61: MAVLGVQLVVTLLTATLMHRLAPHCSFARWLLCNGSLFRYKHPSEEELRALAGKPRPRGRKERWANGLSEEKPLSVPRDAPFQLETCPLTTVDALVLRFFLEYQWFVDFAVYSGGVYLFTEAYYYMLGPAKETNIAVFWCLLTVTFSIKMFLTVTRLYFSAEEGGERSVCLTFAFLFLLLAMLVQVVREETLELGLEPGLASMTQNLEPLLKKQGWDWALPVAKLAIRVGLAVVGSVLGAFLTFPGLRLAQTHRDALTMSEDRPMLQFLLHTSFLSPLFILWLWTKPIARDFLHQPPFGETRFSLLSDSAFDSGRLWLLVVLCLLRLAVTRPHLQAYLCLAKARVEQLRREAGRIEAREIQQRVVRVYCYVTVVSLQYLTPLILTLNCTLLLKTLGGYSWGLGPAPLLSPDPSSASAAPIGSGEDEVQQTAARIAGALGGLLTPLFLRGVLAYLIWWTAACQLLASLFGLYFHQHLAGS
UniProt Q9BRN9: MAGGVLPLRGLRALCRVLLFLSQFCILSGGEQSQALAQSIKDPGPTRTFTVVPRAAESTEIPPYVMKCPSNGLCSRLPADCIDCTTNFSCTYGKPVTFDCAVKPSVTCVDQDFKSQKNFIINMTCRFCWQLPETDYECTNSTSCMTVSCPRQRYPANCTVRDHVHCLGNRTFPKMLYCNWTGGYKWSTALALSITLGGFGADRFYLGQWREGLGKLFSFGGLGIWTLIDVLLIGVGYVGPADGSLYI

Key:
Test in all cases: log2 fold change, soluble protein after heating vs DMSO (PISA); higher = thermal stabilisation; K562 cells, 10 uM, 30 min; active = over 0.2 and 3.5 SD of the protein, either way, in both replicates (recomputed)
[1] = compound: C#Cc1cccc(Nc2ncnc3cc(OCCOC)c(OCCOC)cc23)c1 [erlotinib]
How it was run: (§1)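 K562 cells at 2×10^6 cells/mL were exposed to 10 μM compound for 30 min, then aliquots were heated for 3 min across 48°C-58°C, pooled, and extracted in PBS containing 0.5% NP-40 at 4°C. The supernatant after 21,000xg for 90 min was taken as soluble protein and measured by TMTpro 16plex LC-MS/MS with channel sums equalised. Thermal stability is reported relative to control samples, with values from duplicates. Fold changes are given on a log2 scale.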

[2] = compound: C/C(=N\NC(=O)C1=CC(=CC=C1)S(=O)(=O)N2CCOCC2)/C3=C(C=CC(=C3)Cl)O
How it was run: as §1

[3] = compound: C1=CC(=C(C=C1Cl)C2=NC3=NC=CN=C3C(=N2)NC4=CC=NC=C4)F
How it was run: as §1

[4] = compound: C1=CC(=CC=C1C2=NC3=C(N2)C=C(C=C3)C(=O)N)OC4=CC=C(C=C4)Cl
How it was run: as §1

[5] = compound: C1=CC2=C(C=CC(=C2)/C=C\3/C(=O)NC(=NCC4=CC=CS4)S3)N=C1
How it was run: as §1

[6] = compound: C1=CC2=NC=CN=C2C=C1/C=C/3\C(=O)NC(=O)S3
How it was run: as §1

[7] = compound: C1=CC=C(C=C1)C2=NC(=C(N2)C3=CC=NC=C3)C4=CC(=C(C=C4)Cl)O
How it was run: as §1

[8] = compound: C1=CC=C2C(=C1)C3=NNC4=CC=CC(=C43)C2=O
How it was run: as §1

[9] = compound: C1CCN(C1)C(=O)NC2=CC=CC(=C2)NC3=NC=C(C(=N3)NCCC4=CN=CN4)Br
How it was run: as §1

[10] = compound: C1CN(CCC1(CC2=CC=C(C=C2)Cl)N)C3=NC=NC4=C3C=CN4
How it was run: as §1

Measured: log2 fold change

TMED2 (UniProt Q15363)
inactive: [1] 0.024 | [2] -0.02 | [3] 0.057 | [4] -0.007 | [5] -0.007 | [6] 0.021 | [7] 0.073 | [8] -0.006 | [9] -0.015 | [10] 0.025

TMEM97 (UniProt Q5BJF2)
inactive: [1] -0.074 | [2] -0.025 | [3] 0.02 | [4] 0.123 | [5] 0.065 | [6] 0.013 | [7] -0.062 | [8] -0.032 | [9] -0.035 | [10] 0.038

TMEM62 (UniProt Q0P6H9)
inactive: [1] 0.018 | [2] 0.07 | [3] 0.033 | [4] 0.1 | [5] 0.077 | [6] -0.036 | [7] 0.066 | [8] -0.03 | [9] 0.029 | [10] 0.02

TMEM70 (UniProt Q9BUB7)
inactive: [1] -0.286 | [2] 0.03 | [3] 0.023 | [4] 0.257 | [5] 0.008 | [6] -0.09 | [7] -0.063 | [8] -0.039 | [9] -0.007 | [10] 0.053

TMEM126B (UniProt Q8IUX1)
inactive: [1] -0.025 | [2] 0.039 | [3] 0.112 | [4] 0.038 | [5] -0.004 | [6] 0.041 | [7] -0.001 | [8] 0.016 | [9] 0.022 | [10] 0.092

TMEM263 (UniProt Q8WUH6)
inactive: [1] 0.093 | [2] 0.024 | [3] 0.024 | [4] -0.012 | [5] 0.058 | [6] -0.013 | [7] 0.02 | [8] -0.101 | [9] 0.036 | [10] 0.022

TMEM128 (UniProt Q5BJH2)
inactive: [1] -0.048 | [2] 0 | [3] 0.06 | [4] 0.034 | [5] -0.437 | [6] 0.067 | [7] -0.081 | [8] -0.238 | [9] -0.182 | [10] 0.084

TLR9 isoform 4 (UniProt Q9NR96)
inactive: [1] 0.017 | [2] -0.065 | [3] 0.088 | [4] 0.072 | [5] 0.003 | [6] 0.056 | [7] 0.009 | [8] -0.057 | [9] 0.053 | [10] -0.138

TMOD1 (UniProt P28289)
inactive: [1] 0.005 | [2] 0 | [3] -0.013 | [4] -0.012 | [5] -0.015 | [6] 0.085 | [7] -0.006 | [8] -0.039 | [9] -0.031 | [10] -0.019

TLK1 (UniProt Q9UKI8)
inactive: [1] 0.012 | [2] 0.038 | [3] 0.041 | [4] -0.012 | [5] 0.042 | [6] 0.005 | [7] 0.01 | [8] -0.034 | [9] -0.032 | [10] -0.014

TMEM41B (UniProt Q5BJD5)
inactive: [1] -0.072 | [2] -0.103 | [3] 0.006 | [4] -0.02 | [5] 0.045 | [6] 0.046 | [7] -0.016 | [8] -0.036 | [9] 0.062 | [10] 0.09

TMED9 (UniProt Q9BVK6)
inactive: [1] 0.075 | [2] 0.024 | [3] 0.063 | [4] -0.04 | [5] 0.007 | [6] 0.032 | [7] -0.018 | [8] -0.023 | [9] -0.033 | [10] 0.037

TLE4 isoform 3 (UniProt Q04727)
inactive: [1] -0.034 | [2] 0.06 | [3] 0.018 | [4] 0.022 | [5] 0.008 | [6] 0.016 | [7] 0.009 | [8] -0.034 | [9] 0.027 | [10] 0.02

TMEM126A (UniProt Q9H061)
inactive: [1] -0.004 | [2] -0.009 | [3] 0.018 | [4] 0.002 | [5] 0.037 | [6] 0.022 | [7] 0.016 | [8] 0.006 | [9] 0.016 | [10] 0.021

TMEM38B (UniProt Q9NVV0)
inactive: [1] -0.037 | [2] -0.029 | [3] 0.039 | [4] 0.039 | [5] 0.034 | [6] 0 | [7] 0.037 | [8] -0.055 | [9] 0.002 | [10] 0.01

TMEM43 (UniProt Q9BTV4)
inactive: [1] -0.02 | [2] -0.049 | [3] -0.042 | [4] -0.002 | [5] -0.015 | [6] 0.01 | [7] 0.014 | [8] -0.026 | [9] 0.016 | [10] 0.022

Taken from the entries so far (2 entries):
TMEM126A (UniProt Q9H061)
inactive: [1] -0.004 | [2] -0.009 | [3] 0.018 | [4] 0.002 | [5] 0.037 | [6] 0.022 | [7] 0.016 | [8] 0.006 | [9] 0.016 | [10] 0.021

TMEM38B (UniProt Q9NVV0)
inactive: [1] -0.037 | [2] -0.029 | [3] 0.039 | [4] 0.039 | [5] 0.034 | [6] 0 | [7] 0.037 | [8] -0.055 | [9] 0.002 | [10] 0.01

Next results

TMEM186 (UniProt Q96B77)
inactive: [1] -0.035 | [2] 0.003 | [3] -0.025 | [4] 0.015 | [5] 0.004 | [6] 0.08 | [7] 0.018 | [8] 0.03 | [9] 0.025 | [10] 0.058

TMX3 (UniProt Q96JJ7)
inactive: [1] -0.007 | [2] -0.035 | [3] 0.022 | [4] -0.008 | [5] 0.036 | [6] 0.025 | [7] -0.038 | [8] 0 | [9] -0.009 | [10] 0.03

TMF1 (UniProt P82094)
inactive: [1] -0.032 | [2] -0.021 | [3] 0.017 | [4] 0.013 | [5] 0.014 | [6] 0.059 | [7] -0.047 | [8] -0.061 | [9] -0.008 | [10] -0.012

TM9SF2 (UniProt Q99805)
inactive: [1] 0.012 | [2] 0.025 | [3] 0.037 | [4] -0.006 | [5] 0.027 | [6] -0.021 | [7] 0.04 | [8] 0.009 | [9] -0.04 | [10] 0.063

TMEM160 (UniProt Q9NX00)
inactive: [1] -0.074 | [2] -0.131 | [3] -0.056 | [4] 0.082 | [5] 0.031 | [6] 0.017 | [7] -0.037 | [8] 0.011 | [9] 0.119 | [10] 0.009

TMEM165 (UniProt Q9HC07)
inactive: [1] 0.005 | [2] -0.055 | [3] 0.056 | [4] -0.069 | [5] 0.024 | [6] 0.067 | [7] -0.051 | [8] 0.017 | [9] 0.08 | [10] 0

TNFAIP1 (UniProt Q13829)
inactive: [1] -0.021 | [2] -0.019 | [3] 0.084 | [4] 0.002 | [5] 0.015 | [6] 0.108 | [7] -0.112 | [8] 0.052 | [9] 0.041 | [10] 0.001

TMOD2 (UniProt Q9NZR1)
inactive: [1] -0.167 | [2] 0.038 | [3] 0.333 | [4] 0.332 | [5] -0.015 | [6] -0.009 | [7] 0.124 | [8] -0.028 | [9] -0.059 | [10] 0.056

TMEM189-UBE2V1 (UniProt I3L0A0)
inactive: [1] -0.014 | [2] 0.025 | [3] 0.015 | [4] 0.019 | [5] 0.055 | [6] -0.047 | [7] 0.028 | [8] -0.009 | [9] 0.02 | [10] 0.058

TMEM87A (UniProt Q8NBN3)
inactive: [1] 0.01 | [2] -0.012 | [3] 0.079 | [4] 0.036 | [5] 0.034 | [6] 0.049 | [7] -0.022 | [8] 0.011 | [9] 0.016 | [10] 0.099

TMEM120A (UniProt Q9BXJ8)
inactive: [1] -0.036 | [2] 0.109 | [3] 0.174 | [4] 0.053 | [5] 0 | [6] 0.236 | [7] -0.02 | [8] -0.036 | [9] -0.071 | [10] 0.1

TMEM9 (UniProt Q9P0T7)
inactive: [1] 0.014 | [2] 0.008 | [3] 0.254 | [4] -0.021 | [5] -0.034 | [6] -0.117 | [7] 0.037 | [8] -0.004 | [9] -0.053 | [10] -0.025

TMEM161A (UniProt Q9NX61)
inactive: [1] 0.017 | [2] 0.088 | [3] -0.019 | [4] -0.018 | [5] 0.021 | [6] 0.001 | [7] 0.029 | [8] -0.006 | [9] -0.067 | [10] 0.054

TM2D3 (UniProt Q9BRN9)
inactive: [1] -0.013 | [2] 0.04 | [3] 0.053 | [4] -0.049 | [5] -0.002 | [6] -0.005 | [7] -0.042 | [8] 0 | [9] -0.105 | [10] -0.071
